Assay results published in doi:10.1101/2024.07.03.601736.
These are yes or no findings as the source states them, for the method shown. A result given as binding can be weak or reduced; the word gives no strength. Sequences can lack the tags named with a protein.

Target: T1, Flag-tagged ADGRL1 (ADGRL1^Flag-HA) (UniProt O88917)
T1 sequence: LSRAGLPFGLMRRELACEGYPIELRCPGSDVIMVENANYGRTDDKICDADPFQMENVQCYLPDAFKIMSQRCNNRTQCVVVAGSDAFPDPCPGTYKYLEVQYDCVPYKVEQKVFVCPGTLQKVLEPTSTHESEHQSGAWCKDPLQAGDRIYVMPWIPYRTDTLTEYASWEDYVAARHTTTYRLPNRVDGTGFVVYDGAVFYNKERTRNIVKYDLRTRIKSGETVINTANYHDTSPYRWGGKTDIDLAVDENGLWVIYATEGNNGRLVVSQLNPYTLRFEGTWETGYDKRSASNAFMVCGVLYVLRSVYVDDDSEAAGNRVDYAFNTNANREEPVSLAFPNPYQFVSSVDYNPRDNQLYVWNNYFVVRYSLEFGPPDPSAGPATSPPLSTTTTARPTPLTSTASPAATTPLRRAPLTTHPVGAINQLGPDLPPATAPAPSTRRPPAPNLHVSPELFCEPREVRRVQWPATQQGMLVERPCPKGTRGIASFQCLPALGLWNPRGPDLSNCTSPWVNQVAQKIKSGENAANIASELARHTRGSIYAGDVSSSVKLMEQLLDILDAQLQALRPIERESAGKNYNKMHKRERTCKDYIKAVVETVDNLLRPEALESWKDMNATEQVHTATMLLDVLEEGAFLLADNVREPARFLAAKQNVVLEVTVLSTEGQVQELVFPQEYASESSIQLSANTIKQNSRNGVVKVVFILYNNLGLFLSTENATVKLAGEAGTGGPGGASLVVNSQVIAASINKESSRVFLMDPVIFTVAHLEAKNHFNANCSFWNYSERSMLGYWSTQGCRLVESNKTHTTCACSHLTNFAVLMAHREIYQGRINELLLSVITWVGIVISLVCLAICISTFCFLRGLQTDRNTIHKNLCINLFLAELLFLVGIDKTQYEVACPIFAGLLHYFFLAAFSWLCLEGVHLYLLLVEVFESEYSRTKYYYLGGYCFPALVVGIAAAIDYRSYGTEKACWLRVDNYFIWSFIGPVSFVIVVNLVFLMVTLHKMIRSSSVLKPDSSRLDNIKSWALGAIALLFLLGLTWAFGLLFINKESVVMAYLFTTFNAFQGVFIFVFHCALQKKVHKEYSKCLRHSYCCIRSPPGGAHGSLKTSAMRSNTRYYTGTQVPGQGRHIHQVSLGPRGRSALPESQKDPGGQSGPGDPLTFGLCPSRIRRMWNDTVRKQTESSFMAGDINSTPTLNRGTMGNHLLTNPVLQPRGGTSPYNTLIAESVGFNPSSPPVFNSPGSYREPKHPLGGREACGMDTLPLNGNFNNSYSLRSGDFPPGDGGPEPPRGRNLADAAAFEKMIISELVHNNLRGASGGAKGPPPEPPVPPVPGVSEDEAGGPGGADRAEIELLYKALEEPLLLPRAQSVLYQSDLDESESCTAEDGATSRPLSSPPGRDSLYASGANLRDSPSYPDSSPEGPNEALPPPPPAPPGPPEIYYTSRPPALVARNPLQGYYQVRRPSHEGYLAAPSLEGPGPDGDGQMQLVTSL
Assay: cell aggregation assay

Substance: NRX1β(-SS4) (ligand)
- binding: binds
